We go through two substances from article PMC2270309, “Insights into Mad2 Regulation in the Spindle Checkpoint Revealed by the Crystal Structure of the Symmetric Mad2 Dimer” (PLoS Biology, 2008).

Amino acid sequences for entries named in this document (tags omitted). A change or cut given only in a name is not applied to a line headed by its entry.
UniProt Q13257: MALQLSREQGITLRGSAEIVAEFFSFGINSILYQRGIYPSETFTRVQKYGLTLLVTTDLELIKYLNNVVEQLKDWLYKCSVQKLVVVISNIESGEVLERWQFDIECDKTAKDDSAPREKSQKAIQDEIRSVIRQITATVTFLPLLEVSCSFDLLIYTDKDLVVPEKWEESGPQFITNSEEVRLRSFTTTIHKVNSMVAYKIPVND

These are yes or no findings as the source states them, for the method shown.

The target in assay [1] is Mad2^R184E (human) (UniProt Q13257). The assay can be described thus: SEC; gel filtration of the high-salt peak (Q2) of anion exchange chromatography (holds the C-Mad2 conformer); both purified.
Assay [2] shares this target. Nature of the assay: NMR 1D 1H spectrum (line width of methyl peaks); high-field methyl region of the 1D 1H spectrum; 30 °C; 50 mM phosphate pH 6.8, 300 mM KCl, 1 mM DTT; both purified.
The target of assay [3] is Mad2^WT (wild-type human Mad2, untagged) (human) (UniProt Q13257). The assay can be described thus: condition: only the low-salt peak (Q1), O-Mad2 conformer; SEC; gel filtration of the low-salt peak (Q1) of anion exchange chromatography (O-Mad2 conformer); both purified.

As to Mad2^R184E (from UniProt Q13257 1-205), the binding entry with Mad2^R184E (human) [1] and in the assay with Mad2^R184E (human) [2] was “no binding” each time.

With “Mad2^WT (wild-type human Mad2, untagged) (from UniProt Q13257 1-205)”, in assay [3], the binding result is “no binding”.
